Assay results from article PMC5996148.
This is one part of the list.

What was measured:
Experiment in all cases: protein microarray (ProtoArray v5.0), streptavidin-Alexa Fluor 647
Settings in all cases: 3'-biotin; 20 mM Tris (pH 7.5), 5 mM MgCl2, 100 mM KCl, 0.1% Tween-20, A/T-rich and random oligonucleotide blockers; temperature not stated; high values mean tight binding
LOC401270 (human) = system: LOC401270 (human)
LOC401607 (human) = system: LOC401607 (human)
LOC442582 (human) = system: LOC442582 (human)
LOC51233 (human) = system: LOC51233 (human)
LOC51252 (human) = system: LOC51252 (human)
LOC541471 (human) = system: LOC541471 (human)
LOC554203 (human) = system: LOC554203 (human)
LOC554207 (human) = system: LOC554207 (human)
LOC57228 (human) = system: LOC57228 (human)
LOH12CR1 (human) = system: LOH12CR1 (human)
LONRF2 (human) = system: LONRF2 (human)
LPXN (human) = system: LPXN (human)
LRP10 (human) = system: LRP10 (human)
LRRC14 (human) = system: LRRC14 (human)
LRRIQ2 (human) = system: LRRIQ2 (human)
LTB (human) = system: LTB (human)
LXN (human) = system: LXN (human)
LY6E (human) = system: LY6E (human)
LY6G6C (human) = system: LY6G6C (human)
LYPD1 (human) = system: LYPD1 (human)

**Q.** With “GGGGACAGGGGTATGGGGAGGGG [G4-3 biotinylated (CtG)]” as the sequence, how does the binding signal (LOC401270 (human)) read?
**A.** -0.321 z-score

**Q.** And the binding signal (LOC401607 (human))?
**A.** -0.319 z-score

**Q.** And the binding signal (LOC442582 (human))?
**A.** -0.328 z-score

**Q.** What about the binding signal (LOC51233 (human)) of the same sequence?
**A.** -0.323 z-score

**Q.** What about the binding signal (LOC51252 (human)) of the same sequence?
**A.** -0.324 z-score

**Q.** And the binding signal (LOC541471 (human))?
**A.** -0.338 z-score

**Q.** And the binding signal (LOC554203 (human))?
**A.** -0.337 z-score

**Q.** And the binding signal (LOC554207 (human))?
**A.** -0.306 z-score

**Q.** What about the binding signal (LOC57228 (human)) of the same sequence?
**A.** 4.59 z-score

**Q.** And the binding signal (LOH12CR1 (human))?
**A.** -0.323 z-score

**Q.** What about the binding signal (LONRF2 (human)) of the same sequence?
**A.** -0.29 z-score

**Q.** And the binding signal (LPXN (human))?
**A.** -0.336 z-score

**Q.** And the binding signal (LRP10 (human))?
**A.** -0.308 z-score

**Q.** And the binding signal (LRRC14 (human))?
**A.** -0.307 z-score

**Q.** And the binding signal (LRRIQ2 (human))?
**A.** -0.329 z-score

**Q.** And the binding signal (LTB (human))?
**A.** -0.33 z-score

**Q.** And the binding signal (LXN (human))?
**A.** -0.303 z-score

**Q.** What about the binding signal (LY6E (human)) of the same sequence?
**A.** -0.329 z-score

**Q.** And the binding signal (LY6G6C (human))?
**A.** -0.329 z-score

**Q.** What about the binding signal (LYPD1 (human)) of the same sequence?
**A.** -0.313 z-score
